Results reported in patent US20250034268A1.
These are yes or no findings as the source states them, for the method shown. Some results given as binding are weak or reduced against the parent protein; the word gives no strength.

By UniProt entry, the sequences of proteins in these tests, tags left out. Residues count along the entry.
UniProt Q02223, residues 1-54: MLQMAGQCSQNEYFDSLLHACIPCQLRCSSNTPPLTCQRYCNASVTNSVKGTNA
UniProt O88472, residues 1-49: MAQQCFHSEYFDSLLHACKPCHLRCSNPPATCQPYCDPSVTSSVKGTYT

Columns and labels:
[1] = biological target: cynomolgus monkey BCMA expressed on CHO GS cells (cynomolgus monkey); assay: flow cytometry titration on cynoBCMA-CHO GS cells, APC goat anti-human IgG secondary antibody
[2] = biological target: recombinant human BCMA protein (human) (UniProt Q02223); assay: SPR (Biacore T200), antibody captured by anti-human Fc IgG on a CM5 chip, BCMA in the mobile phase; concentrations are not printed on the sheet
[3] = biological target: recombinant cynomolgus monkey BCMA protein (cynomolgus monkey); assay: as above
[4] = biological target: recombinant mouse BCMA protein (mouse) (UniProt O88472); assay: as above
[5] = biological target: cynomolgus monkey BCMA expressed on CHO GS cells (cynomolgus monkey); assay: flow cytometry on cynoBCMA-CHO GS cells
[6] = biological target: recombinant human BCMA protein (human) (UniProt Q02223); assay: SPR (Biacore T200)
[7] = biological target: recombinant cynomolgus monkey BCMA protein (cynomolgus monkey); assay: SPR (Biacore T200)
[8] = biological target: recombinant mouse BCMA protein (mouse) (UniProt O88472); assay: SPR (Biacore T200)

Measured: binding

B1: ADI-38497 PG antibody (antibody, V domains shown)
VH: QLQLQESGPGLVKPSETLSLTCTVSGGSIVSSSYYWTWIRQPPGKGLEWIGSISIAGSTYYNPSLKSRVTISVDTSKNQFSLKLSSVTAADTAVYYCARDRGDQILDVWSQGTMVTVSS
VL: DIQMTQSPSSLSASVGDRVTITCRASQSISRYLNWYQQKPGKAPKLLIYAASSLQSGVPSRFSGSGSGTDFTLTISSLQPEDFATYYCQQKYFDITFGGGTKVEIKR
binds: all assays above
